Measured values as given in the supplement of paper PMC10849652.
The other results are listed elsewhere or left out.

Amino acid sequences for entries named in this document (tags omitted). A change or cut given only in a name is not applied to a line headed by its entry.
UniProt Q86VI4: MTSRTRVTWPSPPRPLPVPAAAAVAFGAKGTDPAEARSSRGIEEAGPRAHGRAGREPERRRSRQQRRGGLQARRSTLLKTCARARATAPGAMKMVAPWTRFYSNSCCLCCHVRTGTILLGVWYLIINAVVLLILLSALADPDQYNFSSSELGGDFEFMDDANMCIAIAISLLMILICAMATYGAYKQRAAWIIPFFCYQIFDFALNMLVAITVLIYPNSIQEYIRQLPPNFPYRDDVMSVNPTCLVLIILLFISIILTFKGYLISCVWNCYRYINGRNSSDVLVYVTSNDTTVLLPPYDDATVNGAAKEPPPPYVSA
UniProt P61968: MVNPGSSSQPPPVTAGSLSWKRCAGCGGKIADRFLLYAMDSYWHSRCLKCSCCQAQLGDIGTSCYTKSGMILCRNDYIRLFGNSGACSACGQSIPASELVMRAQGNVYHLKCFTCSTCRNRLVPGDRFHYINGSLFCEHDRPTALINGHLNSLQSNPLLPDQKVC
UniProt Q93052: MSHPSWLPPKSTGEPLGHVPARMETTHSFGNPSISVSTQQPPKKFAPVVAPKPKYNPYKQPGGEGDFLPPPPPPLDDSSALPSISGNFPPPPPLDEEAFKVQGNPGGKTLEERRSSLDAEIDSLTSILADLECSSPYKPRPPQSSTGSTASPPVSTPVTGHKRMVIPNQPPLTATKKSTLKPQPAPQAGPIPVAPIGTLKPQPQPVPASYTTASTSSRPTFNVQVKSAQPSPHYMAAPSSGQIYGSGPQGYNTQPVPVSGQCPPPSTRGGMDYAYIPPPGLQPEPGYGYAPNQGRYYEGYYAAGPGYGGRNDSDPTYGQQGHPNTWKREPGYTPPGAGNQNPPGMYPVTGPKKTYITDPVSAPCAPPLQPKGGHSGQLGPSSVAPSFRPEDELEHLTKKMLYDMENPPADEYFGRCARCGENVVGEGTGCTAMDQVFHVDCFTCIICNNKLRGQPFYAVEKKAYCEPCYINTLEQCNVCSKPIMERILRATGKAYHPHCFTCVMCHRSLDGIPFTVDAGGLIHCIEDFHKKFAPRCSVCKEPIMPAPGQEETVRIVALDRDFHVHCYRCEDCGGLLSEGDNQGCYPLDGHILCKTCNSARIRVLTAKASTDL
UniProt Q5SW96: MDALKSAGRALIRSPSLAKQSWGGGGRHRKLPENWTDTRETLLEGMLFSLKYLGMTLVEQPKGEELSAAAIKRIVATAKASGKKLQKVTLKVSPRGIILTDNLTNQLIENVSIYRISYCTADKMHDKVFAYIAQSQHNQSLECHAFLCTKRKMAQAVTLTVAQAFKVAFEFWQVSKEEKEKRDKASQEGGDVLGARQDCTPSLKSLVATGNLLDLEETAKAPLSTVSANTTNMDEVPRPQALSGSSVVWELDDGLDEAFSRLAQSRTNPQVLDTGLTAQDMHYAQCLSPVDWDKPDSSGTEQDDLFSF
UniProt Q9Y546: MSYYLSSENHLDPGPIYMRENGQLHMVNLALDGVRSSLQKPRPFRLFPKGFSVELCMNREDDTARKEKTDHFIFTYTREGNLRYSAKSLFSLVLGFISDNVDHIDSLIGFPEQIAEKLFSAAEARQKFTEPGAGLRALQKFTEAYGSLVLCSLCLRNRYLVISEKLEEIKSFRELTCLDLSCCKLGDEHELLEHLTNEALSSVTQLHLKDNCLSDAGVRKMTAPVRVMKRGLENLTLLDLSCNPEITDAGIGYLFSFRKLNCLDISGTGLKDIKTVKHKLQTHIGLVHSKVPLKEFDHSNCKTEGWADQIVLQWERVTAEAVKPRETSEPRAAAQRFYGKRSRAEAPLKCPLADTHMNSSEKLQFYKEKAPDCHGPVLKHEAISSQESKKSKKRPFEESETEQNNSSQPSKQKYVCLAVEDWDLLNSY
UniProt Q6P1M3: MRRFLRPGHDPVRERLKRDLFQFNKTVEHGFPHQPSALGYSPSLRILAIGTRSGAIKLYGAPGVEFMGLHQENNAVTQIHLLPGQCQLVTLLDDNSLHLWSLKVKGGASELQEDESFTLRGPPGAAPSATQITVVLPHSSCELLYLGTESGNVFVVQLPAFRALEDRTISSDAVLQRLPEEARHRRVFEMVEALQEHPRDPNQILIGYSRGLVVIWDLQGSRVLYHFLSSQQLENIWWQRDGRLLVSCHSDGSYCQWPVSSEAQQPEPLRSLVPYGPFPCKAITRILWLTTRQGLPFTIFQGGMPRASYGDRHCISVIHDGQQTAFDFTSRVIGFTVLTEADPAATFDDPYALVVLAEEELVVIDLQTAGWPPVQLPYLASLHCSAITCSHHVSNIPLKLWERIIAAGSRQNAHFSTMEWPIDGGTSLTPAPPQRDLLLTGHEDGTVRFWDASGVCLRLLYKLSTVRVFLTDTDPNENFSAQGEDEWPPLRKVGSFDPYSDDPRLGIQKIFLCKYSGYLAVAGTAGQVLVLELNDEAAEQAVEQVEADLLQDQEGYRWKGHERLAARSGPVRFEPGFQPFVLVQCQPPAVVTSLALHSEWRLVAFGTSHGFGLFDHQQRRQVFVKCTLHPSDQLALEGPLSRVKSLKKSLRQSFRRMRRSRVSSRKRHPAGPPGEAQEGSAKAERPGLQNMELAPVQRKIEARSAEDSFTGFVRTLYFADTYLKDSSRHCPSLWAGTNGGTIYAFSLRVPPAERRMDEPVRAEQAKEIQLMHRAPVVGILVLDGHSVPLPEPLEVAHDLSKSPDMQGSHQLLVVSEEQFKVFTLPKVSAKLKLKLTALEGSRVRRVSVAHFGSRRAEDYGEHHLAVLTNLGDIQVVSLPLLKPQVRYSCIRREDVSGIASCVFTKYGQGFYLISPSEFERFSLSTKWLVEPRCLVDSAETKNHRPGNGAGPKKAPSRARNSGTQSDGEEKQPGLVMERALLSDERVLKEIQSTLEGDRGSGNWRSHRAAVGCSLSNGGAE
UniProt P13473: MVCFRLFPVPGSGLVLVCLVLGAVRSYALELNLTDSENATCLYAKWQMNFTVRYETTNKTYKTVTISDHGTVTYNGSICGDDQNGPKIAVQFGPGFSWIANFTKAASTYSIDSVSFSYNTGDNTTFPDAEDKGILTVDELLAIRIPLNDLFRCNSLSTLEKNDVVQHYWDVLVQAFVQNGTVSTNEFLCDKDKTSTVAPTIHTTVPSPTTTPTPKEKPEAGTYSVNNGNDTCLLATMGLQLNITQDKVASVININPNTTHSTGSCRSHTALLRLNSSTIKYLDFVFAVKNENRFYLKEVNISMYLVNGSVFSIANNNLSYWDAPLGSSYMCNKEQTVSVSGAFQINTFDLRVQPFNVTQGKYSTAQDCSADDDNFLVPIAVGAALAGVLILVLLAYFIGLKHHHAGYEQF
UniProt P49917: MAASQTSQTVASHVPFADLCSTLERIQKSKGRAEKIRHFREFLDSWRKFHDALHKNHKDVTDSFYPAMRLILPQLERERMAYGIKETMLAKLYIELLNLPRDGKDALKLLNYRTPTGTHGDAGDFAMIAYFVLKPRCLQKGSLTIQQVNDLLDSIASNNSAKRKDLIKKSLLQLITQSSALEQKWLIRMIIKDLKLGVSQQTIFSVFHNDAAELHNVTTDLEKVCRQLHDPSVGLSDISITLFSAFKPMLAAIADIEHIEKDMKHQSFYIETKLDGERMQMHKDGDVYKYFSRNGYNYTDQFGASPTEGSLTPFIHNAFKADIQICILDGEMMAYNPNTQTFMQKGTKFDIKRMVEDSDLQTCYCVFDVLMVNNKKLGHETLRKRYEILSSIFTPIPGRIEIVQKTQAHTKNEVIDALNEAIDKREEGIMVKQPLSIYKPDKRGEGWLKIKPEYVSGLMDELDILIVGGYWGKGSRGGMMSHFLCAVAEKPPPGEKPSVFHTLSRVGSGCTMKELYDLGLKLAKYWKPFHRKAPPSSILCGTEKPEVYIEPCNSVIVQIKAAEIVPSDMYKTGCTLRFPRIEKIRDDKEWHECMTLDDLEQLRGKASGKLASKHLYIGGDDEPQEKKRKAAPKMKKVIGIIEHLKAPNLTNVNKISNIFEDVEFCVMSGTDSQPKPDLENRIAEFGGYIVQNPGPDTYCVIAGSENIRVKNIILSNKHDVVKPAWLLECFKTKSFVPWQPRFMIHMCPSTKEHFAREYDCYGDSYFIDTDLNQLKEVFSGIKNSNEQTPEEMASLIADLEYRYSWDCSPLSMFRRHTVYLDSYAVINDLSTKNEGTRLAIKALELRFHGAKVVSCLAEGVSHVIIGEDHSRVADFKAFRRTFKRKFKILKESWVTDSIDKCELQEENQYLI
UniProt Q96KR4: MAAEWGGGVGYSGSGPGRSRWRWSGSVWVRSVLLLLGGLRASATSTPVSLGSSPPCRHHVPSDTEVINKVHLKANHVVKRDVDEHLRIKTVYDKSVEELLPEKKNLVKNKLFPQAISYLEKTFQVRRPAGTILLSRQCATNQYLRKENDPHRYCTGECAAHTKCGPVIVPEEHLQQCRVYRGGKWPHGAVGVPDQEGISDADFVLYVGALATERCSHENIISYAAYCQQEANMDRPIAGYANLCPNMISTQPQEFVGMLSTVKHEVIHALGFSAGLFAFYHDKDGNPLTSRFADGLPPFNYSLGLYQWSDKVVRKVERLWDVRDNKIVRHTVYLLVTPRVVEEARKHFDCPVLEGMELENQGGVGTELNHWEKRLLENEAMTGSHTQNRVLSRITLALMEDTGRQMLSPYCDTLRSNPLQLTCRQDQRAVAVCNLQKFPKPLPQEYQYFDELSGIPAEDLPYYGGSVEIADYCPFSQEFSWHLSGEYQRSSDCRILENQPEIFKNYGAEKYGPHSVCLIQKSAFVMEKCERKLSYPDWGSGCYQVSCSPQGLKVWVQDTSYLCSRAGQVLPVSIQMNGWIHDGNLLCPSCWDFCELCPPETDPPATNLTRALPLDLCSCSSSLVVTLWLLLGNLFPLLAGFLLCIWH
UniProt Q96FQ7: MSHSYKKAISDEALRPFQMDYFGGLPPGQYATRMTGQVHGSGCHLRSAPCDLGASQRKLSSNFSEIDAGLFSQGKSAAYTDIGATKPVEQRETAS
UniProt Q9BQD3: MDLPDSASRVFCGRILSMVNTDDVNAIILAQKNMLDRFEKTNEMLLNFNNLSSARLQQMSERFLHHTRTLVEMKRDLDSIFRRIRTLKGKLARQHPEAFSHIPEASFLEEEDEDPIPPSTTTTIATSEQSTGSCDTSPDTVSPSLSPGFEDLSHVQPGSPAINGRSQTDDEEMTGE
UniProt A6NK58: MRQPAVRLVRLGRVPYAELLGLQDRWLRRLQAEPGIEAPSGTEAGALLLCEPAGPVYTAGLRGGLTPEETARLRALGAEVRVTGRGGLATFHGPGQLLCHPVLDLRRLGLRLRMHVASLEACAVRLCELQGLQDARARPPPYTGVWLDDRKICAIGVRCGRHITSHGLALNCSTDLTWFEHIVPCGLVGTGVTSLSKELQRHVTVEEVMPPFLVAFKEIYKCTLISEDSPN
UniProt Q3ZCW2: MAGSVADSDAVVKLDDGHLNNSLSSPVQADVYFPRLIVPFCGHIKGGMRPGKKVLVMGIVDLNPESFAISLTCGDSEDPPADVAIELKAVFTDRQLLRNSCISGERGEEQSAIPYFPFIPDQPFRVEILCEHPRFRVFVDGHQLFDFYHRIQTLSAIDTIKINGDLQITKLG
UniProt Q86WU2: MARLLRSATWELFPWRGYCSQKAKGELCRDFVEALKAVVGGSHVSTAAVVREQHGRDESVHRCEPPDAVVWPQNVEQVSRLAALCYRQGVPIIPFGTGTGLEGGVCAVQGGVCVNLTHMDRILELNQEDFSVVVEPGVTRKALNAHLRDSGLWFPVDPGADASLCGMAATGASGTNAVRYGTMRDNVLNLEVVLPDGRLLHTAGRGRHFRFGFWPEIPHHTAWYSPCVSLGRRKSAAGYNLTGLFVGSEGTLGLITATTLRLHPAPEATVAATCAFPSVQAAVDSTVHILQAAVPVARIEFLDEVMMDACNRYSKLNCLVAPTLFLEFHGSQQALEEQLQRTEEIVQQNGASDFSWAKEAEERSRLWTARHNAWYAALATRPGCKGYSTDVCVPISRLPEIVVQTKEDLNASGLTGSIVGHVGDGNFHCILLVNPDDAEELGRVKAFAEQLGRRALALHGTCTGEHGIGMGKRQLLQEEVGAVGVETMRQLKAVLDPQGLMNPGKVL
UniProt Q12912: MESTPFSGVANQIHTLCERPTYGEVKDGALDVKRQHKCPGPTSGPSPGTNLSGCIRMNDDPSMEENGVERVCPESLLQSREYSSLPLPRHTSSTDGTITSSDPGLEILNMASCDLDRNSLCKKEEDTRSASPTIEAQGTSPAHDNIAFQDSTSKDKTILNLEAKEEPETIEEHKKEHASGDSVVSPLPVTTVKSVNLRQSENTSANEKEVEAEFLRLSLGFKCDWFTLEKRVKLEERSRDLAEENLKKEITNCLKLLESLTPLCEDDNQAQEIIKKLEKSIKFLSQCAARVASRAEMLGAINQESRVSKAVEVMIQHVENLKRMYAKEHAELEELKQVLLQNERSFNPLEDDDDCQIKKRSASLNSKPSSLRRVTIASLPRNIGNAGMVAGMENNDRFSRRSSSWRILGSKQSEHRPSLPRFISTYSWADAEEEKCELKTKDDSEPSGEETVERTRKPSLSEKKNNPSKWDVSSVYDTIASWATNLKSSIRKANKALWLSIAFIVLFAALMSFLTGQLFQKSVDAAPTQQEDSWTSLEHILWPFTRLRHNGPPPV

Columns and labels:
Assay in all cases: log2 fold change, soluble protein after heating vs DMSO (PISA); higher = thermal stabilisation; K562 cells, 10 uM, 30 min; active = over 0.2 and 3.5 SD of the protein, either way, in both replicates (recomputed)
[1] = compound: CCCc1cc(C)[nH]c(=O)c1CNC(=O)c1cc(-c2ccnc(N3CCN(C)CC3)c2)cc2c1cnn2C(C)C
How it was run: (§1)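 Soluble protein was defined as the supernatant after 21,000xg for 90 min. It came from K562 cells at 2×10^6 cells/mL given 10 μM compound for 30 min, heated in aliquots for 3 min across 48°C-58°C, pooled, and extracted in PBS with 0.5% NP-40 at 4°C, and was quantified by TMTpro 16plex LC-MS/MS with equalised channel sums. Thermal stability against control samples, from duplicates, is reported as log2 fold change.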

[2] = compound: CCN(CC)Cc1ccc2cc(COC(=O)Nc3ccc(C(=O)NO)cc3)ccc2c1 [givinostat]
How it was run: as §1

[3] = compound: CCN(CCCOc1ccc2c(Nc3cc(CC(=O)Nc4cccc(F)c4)[nH]n3)ncnc2c1)CCOP(=O)(O)O [barasertib]
How it was run: as §1

[4] = compound: CC1=C(C=C(C=C1)NC(=O)C2=CC(=CC=C2)N(C)C)NC(=O)C3=CC=C(C=C3)O
How it was run: as §1

[5] = compound: CC1=CC=C(C=C1)SC2=C3C=C(SC3=CN=C2)C(=O)N
How it was run: as §1

[6] = compound: CCCS(=O)(=O)Nc1ccc(F)c(C(=O)c2c[nH]c3ncc(Cl)cc23)c1F
How it was run: as §1

[7] = compound: CC1=C(C=C(C=C1)NC(=O)C2=CC(=CC=C2)C(C)(C)C#N)NC3=CC4=C(C=C3)N=CN(C4=O)C
How it was run: as §1

[8] = compound: CC1=NC(=CC=C1)C2=C(N=C(N2)C(C)(C)C)C3=CC4=NC=CN=C4C=C3
How it was run: as §1

[9] = compound: CCCCN(Cc1ccc(C(=O)NO)cc1)C(=O)Nc1ccccc1 [Nexturastat A]
How it was run: as §1

[10] = compound: CCCS(=O)(=O)Nc1ccc(F)c(C(=O)c2c[nH]c3ncc(-c4ccc(Cl)cc4)cc23)c1F [vemurafenib]
How it was run: as §1

Measured: log2 fold change

LOX (UniProt P28300)
inactive: [1] -0.269 | [2] 0.087 | [3] -0.129

LAMB2 (UniProt P55268)
inactive: [4] 0.033 | [5] -0.181 | [6] -0.183 | [1] 0.119

LGMN (UniProt Q99538)
inactive: [5] 0.106 | [6] -0.011

LIN52 (UniProt Q52LA3)
inactive: [1] 0.123

LAPTM4B (UniProt Q86VI4)
inactive: [7] 0 | [1] -0.228 | [2] 0.128 | [3] 0.002

LMO4 (UniProt P61968)
inactive: [4] -0.052 | [5] -0.099 | [8] 0.026 | [6] -0.092 | [1] -0.162 | [3] 0.04

LPP (UniProt Q93052)
inactive: [7] -0.276 | [8] 0.223 | [9] 0.006 | [3] 0.096

LDLRAP1 (UniProt Q5SW96)
inactive: [4] -0.028 | [8] -0.102 | [2] 0.284 | [3] 0.146

LAPTM5 (UniProt Q13571)
inactive: [4] 0.02 | [3] 0.102

LRRC42 (UniProt Q9Y546)
inactive: [4] -0.022 | [10] -0.146 | [2] 0.129 | [3] 0.069

LDHC (UniProt P07864)
inactive: [7] -0.144 | [9] 0.443 | [3] 0.244

L1TD1 (UniProt Q5T7N2)
inactive: [8] 0.008 | [1] 0.473

LIMS1 (UniProt P48059)
inactive: [8] 0.022 | [3] 0.042

LEPROTL1 isoform 2 (UniProt O95214)
inactive: [4] 0.161 | [5] 0.205 | [8] -0.065 | [10] -0.169 | [6] -0.054 | [1] -0.053 | [3] -0.174

LLGL2 (UniProt Q6P1M3)
inactive: [4] -0.011 | [5] -0.075 | [8] -0.047 | [9] 0.009 | [6] -0.081 | [1] -0.098 | [2] 0.046 | [3] 0

LAMP2 isoform 2 (UniProt P13473)
inactive: [5] -0.07 | [8] 0.003 | [9] -0.015 | [10] -0.082 | [6] -0.093 | [1] -0.071 | [2] -0.158 | [3] 0

LIG4 (UniProt P49917)
inactive: [7] 0.073 | [10] 0.128

LMLN isoform 3 (UniProt Q96KR4)
inactive: [5] -0.053 | [9] 0.127 | [6] -0.166 | [3] 0.068

LGALS8 isoform 2 (UniProt O00214)
inactive: [7] 0.01 | [8] -0.228 | [9] 0.288 | [10] -0.013 | [1] -0.062 | [2] 0.072 | [3] 0.13

LIPT1 (UniProt Q9Y234)
inactive: [1] 0.119

LBH (UniProt Q53QV2)
inactive: [4] 0.094 | [5] 0.151 | [9] -0.089 | [6] -0.015 | [1] 0.033

LGALS3BP (UniProt Q08380)
inactive: [9] -0.042

LOR (UniProt P23490)
inactive: [9] 0.236 | [1] -0.01

LAMA2 (UniProt P24043)
inactive: [1] -0.138 | [2] 0.392 | [3] 0.011

LINC00526 (UniProt Q96FQ7)
inactive: [2] 0.031

LRP5 (UniProt O75197)
inactive: [5] -0.03 | [9] 0.07 | [10] 0.001 | [6] 0

KXD1 (UniProt Q9BQD3)
inactive: [4] -0.025 | [5] 0 | [9] -0.223 | [10] 0.092 | [6] 0.059 | [1] 0.072 | [2] 0.094 | [3] -0.021

LGALS3 (UniProt P17931)
inactive: [4] -0.039 | [1] -0.074 | [3] 0.17

LIN28A (UniProt Q9H9Z2)
inactive: [7] -0.117 | [3] 0.052

Taken from the results shown (3 entries):
LAMP2 isoform 2 (UniProt P13473)
inactive: [5] -0.07 | [8] 0.003 | [9] -0.015 | [10] -0.082 | [6] -0.093 | [1] -0.071 | [2] -0.158 | [3] 0

LIG4 (UniProt P49917)
inactive: [7] 0.073 | [10] 0.128

LMLN isoform 3 (UniProt Q96KR4)
inactive: [5] -0.053 | [9] 0.127 | [6] -0.166 | [3] 0.068

(list continues)

LIPT2 (UniProt A6NK58)
inactive: [7] 0.202 | [9] -0.168 | [10] -0.135

LAMA5 (UniProt O15230)
inactive: [9] 0.174 | [10] -0.396 | [1] -0.135 | [2] 0.115

LGALSL (UniProt Q3ZCW2)
inactive: [8] 0.088 | [1] 0.225

LDHD (UniProt Q86WU2)
inactive: [2] 0.149

LPCAT4 (UniProt Q643R3)
inactive: [8] 0.145 | [9] 0.047

LRRC14 (UniProt Q15048)
inactive: [5] -0.105 | [8] 0.021 | [10] -0.1 | [6] 0.181 | [1] -0.053 | [2] 0.247 | [3] 0.167

LHFPL2 (UniProt Q6ZUX7)
inactive: [5] -0.053 | [9] -0.052 | [10] -0.125 | [6] -0.105 | [2] -0.258

LRMP (UniProt Q12912)
inactive: [4] -0.009

LRP1 (UniProt Q07954)
inactive: [9] -0.061 | [10] -0.084 | [1] -0.166
